Primary screen of a compound library

The filed quantity is “Percent Effect” (%).
The record does not define 0% and 100%; most values in the screen are far below 50% and negative numbers occur (in some assays of this library far below -100).
This is an unselected part of the compounds tested.
Two or more numbers in one place are separate tests of the same structure; such repeats can differ widely.

Mtb cholesterol medium: 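Whole-cell growth test on Mycobacterium tuberculosis, read after 4 days in a medium based on cholesterol and the lipid DPPC; the read-out is not stated. Compounds at 50 µM. Direction is inferred from retests: higher values go with more growth inhibition. Size under these conditions: about 69,000 compounds, about 370 of them at 50% or above in at least one test.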
Mtb glucose medium: 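Phenotypic screen: M. tuberculosis growth, glucose 7H9 medium, 3 days; the read-out is not stated. Concentration: 50 µM. Higher reads as more growth inhibition (inferred: compounds with an IC50 in retests scored well above the rest). About 69,000 compounds were tested under these conditions; 1.1% (about 760) showed 50% or more at least once.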

compound,Mtb cholesterol medium,Mtb glucose medium
O=C(COCC(F)(F)F)NS(=O)(=O)c1ccc2c(c1)OCCCO2,6.958%,16.52%
O=C(C1CCCO1)N1CCC2(CC1)COCCN(Cc1cccnc1)C2.O=C(O)C(F)(F)F.O=C(O)C(F)(F)F (stereo not given),13.28%,26.44%
CN[C@@H](CO)C(=O)NCc1cc2n(n1)CCCN(C1CCCCC1)C2,-3.58%,21.71%
COc1cc(N2CCC3(CC2)CC(N2CCN(C)CC2)CO3)ncn1.O=C(O)C(F)(F)F.O=C(O)C(F)(F)F (stereo not given),28.44%,-11.2%
Cc1ccccc1CC(C)NC(=O)Nc1cnn(CC(N)=O)c1 (stereo not given),0.9204%,5%
NC(=O)CN1CCc2c(Br)ccc(F)c2C1,10.25%,-13.23%
CN1CCc2nc3cc(C(=O)NCc4cccs4)ccc3c(=O)n2CC1,7.837%,20.92%
Cc1nc(CN)cc(NCc2ccccc2-n2cncn2)n1,-6.007%,-48.4%
CN(C(=O)C1CCC1)C1CCN(c2ccccc2Cl)C1=O (stereo not given),10.55%,15.57%
CCn1cnnc1CNc1nc(C)nc2scc(CC(C)C)c12,3.514%,20.68%
O=C(O)C(F)(F)F.O=C1CC(c2cccnc2)C2(CCN(S(=O)(=O)C3CC3)CC2)N1 (stereo not given),-15.88%,0.5347%
CN(Cc1ccc([S+](C)[O-])cc1)c1ccc(Br)cn1 (stereo not given),17.71%,7.143%
CC(C)CC(=O)N1CCC2(CC1)OC(C(N)=O)Cn1ccnc12.O=C(O)C(F)(F)F (stereo not given),7.325%,8.398%
CNC(=O)NCC(=O)N(C)C(c1ccc(Cl)cc1)c1cccnc1 (stereo not given),-28.21%,-56.45%
COCc1nn(C(C)C)c2c1CCN(Cc1ccccn1)C2.O=C(O)C(F)(F)F.O=C(O)C(F)(F)F,17.55%,-35.08%
COc1cccc2c1OCC(C(=O)N1CCN(S(C)(=O)=O)CC1)C2 (stereo not given),-1.442%,-13.2%
CCC(CO)N(Cc1ccsc1)Cc1ccccc1C(=O)O (stereo not given),-3.075%,12.88%
CCC(NC(=O)NCc1cc(Cl)ccc1OC)c1noc(C)n1 (stereo not given),-27.41%,-7.393%
CCC(CC)C(=O)c1c[nH]c(C(=O)N2CCN(c3ccccc3)CC2)c1,-2.941%,-10.23% and 0.555%
CCn1cc(CN2CCN(C(=O)c3cc(Br)cs3)CC2)c(C)n1,-10.44%,6.122% and 6.443%
CCOC(=O)c1ccc(NC(=O)c2cc3c([nH]c2=O)CCCC3)cc1,16%,36.32% and -1.242%
Cc1nc(C)n(CC2CCCN2CC(=O)Nc2ccnn2C(C)C)n1 (stereo not given),-37.47%,-40.73%
CNc1[nH]nc(N)c1NC(=O)c1ccccc1,-24.06%,-7.657%
O=C(O)C(F)(F)F.c1ccc(CCNCC2Cn3nncc3CO2)cc1 (stereo not given),-5.119%,-5.786% and -62.99%
CN(C)C(=O)c1cc(S(=O)(=O)N2CCCC2Cn2ccnc2)cn1C (stereo not given),-13.79%,-1.087%
Cc1ccccc1C(C(=O)NCCS(C)(=O)=O)N(C)C (stereo not given),0.4633%,-0.4982% and -2.969%
C=Cc1cccc(CN2C[C@@H](CN(C)CC)[C@@H](CO)C2)c1,2.759%,-19.09% and 5.217%
COc1cc(F)ccc1NC(=O)NC(C)C(=O)NC(C)(C)C (stereo not given),16.81%,1.003% and 2.575%
[H][C@]12CC[C@]([H])(CN(c3ncccn3)C1)N(C(=O)c1cnc(SC)nc1)C2,-18.35% and 2.743%,-25.2%
COc1cc(N2CC[C@@H](O)[C@@H]2Cc2ccccc2)ncn1,-11.47%,-14.67%
CC(C)CCN1CCN(CC(=O)Nc2ccc3nsnc3c2)CC1,-0.4393%,-11.96% and -2.114%
Cn1ncc2c1C(COCC1CC1)CN(C(=O)c1cscn1)C2.O=C(O)C(F)(F)F (stereo not given),-11.3%,14.04%
CNC(=O)Cn1ccc2ccc(NC(=O)C(C)CSC)cc21 (stereo not given),-34.54%,4.326% and 9.627%
Cc1ncsc1C(=O)NC1CCN(Cc2ccc(C#N)cc2)CC1,-7.229%,-23.98%
Cn1ccnc1CCNS(=O)(=O)c1cccc(Br)c1,-12.4%,3.559%
O=C(O)C(F)(F)F.O=C(O)C(F)(F)F.[H][C@@]12CN(C(=O)c3ccsc3)C[C@]1([H])OCCN2CCN(C)C,2.297%,17.18%
CC(C)(C)OC(=O)N1CCN(c2ccc(F)cc2)CC1C(=O)O (stereo not given),0.9947%,-9.22%
COc1ccc(Cl)cc1-c1cc(NC(=O)CNC(=O)C2CC2)[nH]n1,-10.26% and -21.9%,-8.802% and -18.69%
CN(C)c1ccc(CNc2cncc(-n3cccn3)n2)cc1,-15.92%,-12.38%
CC(=O)N1CCN(c2ccc(Cl)nn2)C(=O)C1,-11.48%,-0.6929%
COc1ccc(Cl)cc1NC(=O)CCNc1ccc(C#N)cn1,-4.583% and -2.725%,1.079%
CS(=O)(=O)CCN1CCC(=Cc2ccccc2)CC1,-2.791%,18.6%
COCCn1ccnc1C1CCCN(c2cnccn2)C1 (stereo not given),-5.827%,-3.505% and -13.81%
COCCCNC(=O)CN(C)Cc1ccc(F)cc1Cl,-2.198%,-20.54%
Cc1[nH]c(-c2ccccc2)nc1C(=O)N1CCC2(CCCO2)CC1,10.11%,31.13%
CC1CCN(CC(=O)N(Cc2ccccc2)Cc2nccs2)C1=O (stereo not given),5.269%,10.06% and 2.373%
O=C(O)C(F)(F)F.[H][C@]12CN(Cc3cccc(C)c3)C[C@@]1([H])S(=O)(=O)CC[C@@H]2C(=O)NCC(C)C,12.45%,-0.01291%
Cc1oc(-c2nc(C#N)c(NC(C)C)o2)cc1S(=O)(=O)N1CCCCC1,16.95%,-9.279%
CN(C(=O)CN1CCCc2cc(F)cc(F)c21)c1ccccc1,-3.176%,15.91% and 23.87%
O=C(O)C(F)(F)F.O=C1CCC2(CCN(Cc3ccc(F)cc3)CC2)N1Cc1ccccc1,21.35%,-6.275%
CSc1cc2c(cc1NC(=O)N(C)Cc1cnn(C)c1)OCCO2,-19.13%,-22.34% and -4.344%
CCC[C@H]1CN(C2CCOCC2)C[C@@H]1NC(=O)CCCn1ccnc1,-4.837%,-8.872% and -5.168%
Cc1ccc(CN(C)Cc2nc3ccc(F)cc3[nH]2)cn1,-0.6016% and -1.53%,9.536%
CCN(C)c1ccc(CNC(=O)c2cc(C(N)=O)cs2)cc1F,-7.627%,5.599%
CN(CC(=O)N1CCCC1c1ccccn1)Cc1ccccc1 (stereo not given),-8.442%,13.42%
[H][C@@]12CCN(C[C@@H]1C(=O)Nc1ccccc1)[C@@H](Cn1cc(CCO)nn1)C2,8.778%,-18.61% and 12.09%
O=S(=O)(NCc1ccnc(-n2ccnc2)c1)c1cncc(F)c1,-2.756%,-11.45%
Cn1c(CN2CCCC2)nnc1C1CCCN(C(=O)C2CCOCC2)C1 (stereo not given),14.52%,20.34%
COc1cccc(CCC(=O)N2CCCCC2Cn2cccn2)c1 (stereo not given),-12.44%,-5.502%
CC(C)OC(=O)CC(NC(=O)CCn1cccn1)c1ccccc1 (stereo not given),-1.469%,14.3% and 11.2%
CN(c1ccc2ccccc2c1)S(=O)(=O)c1cc(C(=O)O)cs1,-13.25%,-7.33%
[H][C@@]12CCN(Cc3ccc(C)o3)C[C@@]1([H])O[C@@H](c1nc(C3CC3)cs1)C2,1.522%,23.16% and 19.97%
O=C1CCCN1Cc1ncn2c1CN(C(=O)NC1CCCC1)CCC2,13.56%,-10.98%
[H][C@@]12CS(=O)(=O)C[C@]1([H])N(C(=O)c1ccnn1C)CCN2C(=O)C1CCC1,-3.038% and 0.6155%,12.55%
c1ccc(Cc2nnc(CN3CCCCC3Cn3cncn3)o2)cc1 (stereo not given),-8.599%,4.479% and 29.37%
[H][C@@]12C[C@H](C(=O)N(C)C)[C@@]([H])(CN(S(=O)(=O)CCC)C1)O2,-10.79%,-8.066%
CC(C)CNC(=O)c1cc2c(s1)CCN2Cc1cccnc1,64.49%,-3.835% and 21.37%
Cc1cccc2c1cnn2CCCNC(=O)c1ccnn1C,6.117%,5.211%
O=C(O)C(F)(F)F.O=C(c1cscn1)N1CCC2(CCN(Cc3nccs3)CC2)C1,-12.13% and 4.145%,3.302%
CC(NCc1cccc(NC(=O)C2CCCCC2)c1)c1cnn(C)c1 (stereo not given),-45.95%,-6.897%
CN(Cc1ccc(C(N)=O)cc1)c1ccc(C(F)(F)F)cn1,18.08%,21.6%
CCC(CC)CN1CCN(CC(=O)Nc2cccc3nsnc23)CC1,19.56%,2.209% and 0.6553%
CN(C)Cc1cnc2n1CCN(C(=O)Cc1ccsc1)CC2.O=C(O)C(F)(F)F,-13.57%,-33.49% and -1.289%

Repeated from the top, 5 entries:

{"compound": "O=C(COCC(F)(F)F)NS(=O)(=O)c1ccc2c(c1)OCCCO2", "Mtb cholesterol medium": 6.958, "Mtb glucose medium": 16.52}
{"compound": "O=C(C1CCCO1)N1CCC2(CC1)COCCN(Cc1cccnc1)C2.O=C(O)C(F)(F)F.O=C(O)C(F)(F)F", "stereo": "stereo not given", "Mtb cholesterol medium": 13.28, "Mtb glucose medium": 26.44}
{"compound": "CN[C@@H](CO)C(=O)NCc1cc2n(n1)CCCN(C1CCCCC1)C2", "Mtb cholesterol medium": -3.58, "Mtb glucose medium": 21.71}
{"compound": "COc1cc(N2CCC3(CC2)CC(N2CCN(C)CC2)CO3)ncn1.O=C(O)C(F)(F)F.O=C(O)C(F)(F)F", "stereo": "stereo not given", "Mtb cholesterol medium": 28.44, "Mtb glucose medium": -11.2}
{"compound": "Cc1ccccc1CC(C)NC(=O)Nc1cnn(CC(N)=O)c1", "stereo": "stereo not given", "Mtb cholesterol medium": 0.9204, "Mtb glucose medium": 5}

The values are deposited in ChEMBL (CHEMBL3988442, “University of Dundee, Small-Polar-MMV Screening Library” (2021)).